# Test: Photolysis of PAGs in acetonitrile under 365 nm irradiation (photoreactivity)
# Format: physicochemical
# Details: for Relative Photoreactivity at 365 nm: photoreaction constant relative to NIT normalized to one, air, room temperature, 3×10^−5 M
# Excerpt: A photoresist composition typically comprises PAG, polymers, additives and solvents. The performance of a photoresist composition is mainly dependent on the properties of the PAG and polymer components. To formulate a high-performance photoresist composition, more photosensitive PAGs are typically selected. The photosensitivity of a PAG is typically directly related to the strength of the generated acid and the photoreactivity of the PAG. For a series of PAGs producing the same latent acid, their photosensitivity is related only to their photoreactivity. Thus evaluating the photosensitivity of a PAG can be achieved by studying its photoreactivity. The higher photoreactivity, the higher photosensitivity. The photoreactivity can be investigated by photolysis of a PAG in its dilute solution under low exposure intensity (to avoid side reactions which don't generate the desired acid). The change in the concentration of a PAG upon irradiation can be determined by measuring the absorbance of the PAG at the maximum absorption wavelength.
# Photolysis of PAGs was carried out in acetonitrile in air at room temperature. The sodium salt of tetrabromophenol blue (TBPBNa), an acid indicator dye, which has a maximum absorption at 618 nm, was purchased from Aldrich (indicator grade) and used as received. Irradiation of the solution of the PAGs (3×10^−5 M) was performed using a Cole-Parmer UV 15 W bench lamp (EW-97605-50) at 365 nm. Light intensity was measured using an UV Power Puck II radiometer from EIT Inc. UV-Vis spectra were run on a Thermo Scientific Evolution 201 UV-visible spectrophotometer.
# Photolysis of NIT, comparative compound A, D-1, and D-2 was examined in acetonitrile. The absorption band at 397 nm gradually decreases upon irradiation, indicating the progress of photoreaction with the increase of exposure dose of energy. Assuming the photoreaction is first-order, plot of natural log of changes in absorbance with exposure dose of energy gives the photoreaction constant of D-2 (i.e. the slope of the linear trendline) (FIG. 2). The photoreaction constants of other compounds were similarly determined under the same irradiation condition.
# Comparing the constants of A, D-1, and D-2 with that of NIT normalized to one gives the relative photoreactivity (Table 7). The photoreactivity for PAG (e.g. D-2) according to the present disclosure is ˜8 times greater than that of NIT and ˜3 times greater than that of Comparative Compound A. The formation of acid upon irradiation was confirmed by observing the spectral changes of the acid indicator, TBPBNa at 618 nm.
smiles,measurement,setting,value
"O=C1c2cccc3cccc(c23)C(=O)N1OS(=O)(=O)C(F)(F)F [NIT, N-Hydroxynaphthalimide triflate, reference compound]",Relative Photoreactivity at 365 nm,,1.0
O=C1c2cccc3c(/C=C/c4ccccc4)ccc(c23)C(=O)N1OS(=O)(=O)C(F)(F)F [Compound D-2],"photoreactivity, times greater than that of Comparative Compound A",365 nm,~3 times
same,"photoreactivity, times greater than that of NIT",365 nm,~8 times
same,Relative Photoreactivity at 365 nm,,8.2
CCCCOC(=O)/C=C/c1ccc2c3c(cccc13)C(=O)N(OS(=O)(=O)C(F)(F)F)C2=O [Compound D-1],Relative Photoreactivity at 365 nm,,1.8
CCC(C)Oc1ccc(/C=C/c2ccc3c4c(cccc24)C(=O)N(OS(=O)(=O)C(F)(F)F)C3=O)cc1 (stereo not shown),Relative Photoreactivity at 365 nm,,8.7
"O=C1c2cccc3c(C#Cc4ccccc4)ccc(c23)C(=O)N1OS(=O)(=O)C(F)(F)F [Comparative Compound A, reference compound]",Relative Photoreactivity at 365 nm,,2.5

# From patent US20200089110A1, “SULFONIC ACID DERIVATIVE COMPOUNDS AS PHOTOACID GENERATORS IN RESIST APPLICATIONS” (Heraeus Precious Metals North America Daychem LLC, priority 2015, published 2020)
